Assay results: PMC9371924, “Exploration of DNA processing features unravels novel properties of ICE conjugation in Gram-positive bacteria”

Tests used:
[1] = target: T1, RelSt3 (MOBT relaxase) (Streptococcus thermophilus (ICESt3)) (UniProt Q935T7); assay: EMSA; details: agarose, 0.5 and 1.5 uM; PAGE EMSA: 20 mM Tris-HCl (pH not stated), 500 mM NaCl, 100 ug/ml salmon sperm DNA, 0.11 uM DNA, 15 min 37 C, gel run at 4 C; recombinant protein; probe letters rebuilt from the primers and the genome
T1 sequence (looked up, limits assumed): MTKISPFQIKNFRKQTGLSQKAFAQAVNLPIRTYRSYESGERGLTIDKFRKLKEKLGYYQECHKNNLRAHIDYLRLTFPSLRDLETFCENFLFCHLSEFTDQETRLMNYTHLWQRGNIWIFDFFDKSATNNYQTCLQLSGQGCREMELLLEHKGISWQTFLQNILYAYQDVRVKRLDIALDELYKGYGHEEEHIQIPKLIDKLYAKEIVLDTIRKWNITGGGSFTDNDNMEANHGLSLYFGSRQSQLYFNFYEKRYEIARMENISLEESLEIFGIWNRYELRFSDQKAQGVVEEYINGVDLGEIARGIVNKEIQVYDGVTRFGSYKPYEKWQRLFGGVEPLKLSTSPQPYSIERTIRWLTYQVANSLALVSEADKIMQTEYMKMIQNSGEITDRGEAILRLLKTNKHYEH

[2] = target: T2, RelSt3 (MOBT relaxase) (Streptococcus thermophilus (ICESt3)) (UniProt Q935T7); assay: EMSA; details: up to 6.4 uM, PAGE EMSA: 20 mM Tris-HCl (pH not stated), 500 mM NaCl, 100 ug/ml salmon sperm DNA, 0.11 uM DNA, 15 min 37 C, gel run at 4 C, recombinant protein, label: 5' 6-FAM
T2 sequence (looked up, limits assumed): T1 sequence (looked up, limits assumed) with N28S, E61G, A128V, E190D, N229D, N297T, S324A, R333E

[3] = target: T2, RelSt3 (MOBT relaxase) (Streptococcus thermophilus (ICESt3)); assay: covalent adduct gel (Coomassie); details: Mn2+, covalent nicking intermediate; recombinant protein

Sequence | binding result [1] | other results
AAAAAGAATTCAATCCTCGCTCAATTTGAAGAGGGAGGACGCAGGTCTTATCCAAAAGCAGTTGAAGCGACGATTGTTCATCATGGGCTAGGACAAGGGCAAGGACAAGCCTGACCACAGGTCAGGCGCAGACCGTAGCCCGAAGTTCCTAGGCCATGATGAGACTTCAACCCCCGATTTCTAATAGGGGGGTTACATTTGGCCAAAGTGCCACGTCCACCCCTCCTCATTCCTTGTGGGAGTTGGGATTTCAAGATTTAGAAAGTGTGTCACTTTGGTCCAAAAAGTGTGTCACTTAGTCAAAAGGAGGTGGGCCCTTTTT (double strand) [oriT5 PCR product] | binds | 
AAAAAGAATTCAGGCATTGTATTCGAACGTTCAGACTCTGCCATTCTAGTGAATCCTTTTCAAGAAAAACTTCTTCTTGAAATCCTCGCTCAATTTGAAGAGGGAGGACGCAGGTCTTATCCAAAAGCAGTTGAAGCGACGATTGTTCATCATGGGCTAGGACAAGGGCAAGGACAAGCCTGACCACAGGTCAGGCGCAGACCGTAGCCCGAAGTTCCTAGGCCATGATGAGACTTCAACCCCCGATTTCTAATAGGGGGGTTACATTTGGCCAAAGTGCCACGTCCACCCCTCCTCATTCCGGGCCCTTTTT (double strand) [oriT4 PCR product] | no binding | 
AAAAAGAATTCTAATAGGGGGGTTACATTTGGCCAAAGTGCCACGTCCACCCCTCCTCATTCCTTGTGGGAGTTGGGATTTCAAGATTTAGAAAGTGTGTCACTTTGGTCCAAAAAGTGTGTCACTTAGTCAAAAGGAGGTGTTCCCATGAATGACTAAAATAAGTCCCTTTCAGATCAAAAACTTTAGAAAACAAACAGGCCTTAGCCAAAAAGCCTTTGCACAAGCAGTTAACTTACCGATAAGAACTTACCGCTCCTATGAATCTGGGGAAAGAGGTCTGACCATTGACAAGTTTCGAAAACTCAAAGGGGCCCTTTTT (double strand) [oriT3 PCR product] | binds | 
AAAAAGGGCCCGAAATCGGGGGTTGAAGTCTCATCATGGCCTAGGAACTTCGGGCTACGGTCTGCGCCTGACCTGTGGTCAGGCTTGTCCTTGCCCTTGTCCTAGCCCATGATGAACAATCGTCGCTTCAACTGCTTTTGGATAAGACCTGCGTCCTCCCTCTTCAAATTGAGCGAGGATTTCAAGAAGAAGTTTTTCTTGAAAAGGATTCACTAGAATGGCAGAGTCTGAACGTTCGAATACAATGCCTTGTTCTTGCAAGAGATAAATGATCTTTCGAAGCGTCGCCATTTTGAGGTCTTGTTCCTCCGGAATTCTTTTT (double strand) [oriT2 PCR product] | no binding | 
CTTTGGTCCAAAAAGTGTGTCACTTAGTCAAAAGGAG (double strand) [ori43 (IR2b)] |  | binding result ([2]; no or very poor binding): binds more weakly
GAGACTTCAACCCCCGATTTCTAATAGGGGGGTTACATTTTCAAGATTTAGAAAGTGTGTCACTTTGGTCCAAAAAGTGTGTCACTTAGTCAAAAGGAG / CTCCTTTTGACTAAGTGACACACTTTTTGGACCAAAGTGACACACTTTCTAAATCTTGA [ori50 unlabeled] |  | binding result [3]: binds
TCAAGATTTAGAAAGTGTGTCACTTTGGTCCAAAAAGTGTGTCACTTAGTCAAAAGGAG [ss-ori41] |  | binding result ([2]; single-stranded DNA): no binding
TTTCAAGATTTAGAAAGTGTGTCACTTTGGTCCAAA (double strand) [ori34 (IR2a)] |  | binding result ([2]; no or very poor binding): binds more weakly

Positions count from the first letter of the chain named. For at least one entry, the source does not settle the construct or the ends of the probe. For some assays here: A negative result means that nothing was seen under these conditions. Tags and fusion partners may be left off the protein sequences shown. For some assays here: The comparison behind a weaker result is the experiment's own reference, which may not be listed here.
